Measurements: PubChem BioAssay AID485314 (National Center for Advancing Translational Sciences (NCATS), 2010)
About 4,500 (1.3%) of roughly 340,000 compounds were called active. Inconclusive means that the source gave no clear call. Such entries were picked first, then a sample of the others. The call rests on the fitted dose curve; in most records, active means well fitted inhibition curve with a large enough effect; inconclusive means small, poorly fitted or top-dose-only effect, or another doubt; inactive means no such curve, though single readings can be large or run the other way. Potencies of inconclusive entries are doubtful fits and often do not repeat.

What follows are compounds tested against DNA polymerase beta (Homo sapiens) (UniProt P06746) (assay: qHTS Assay for Inhibitors of DNA Polymerase Beta). Details: Pol beta primer extension/strand displacement, fluorescence kinetic; activity change, negative = inhibition: at 114 µM (top of the series).
Procedure, shortened: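 Curves were derived by four-parameter Hill fits of normalized qHTS data. The kinetic fluorescent primer-extension read was taken at 0 and 10 min after 50 nM substrate, following a 15 min room-temperature preincubation of 10 nM enzyme with compounds.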
On the % scale 0 is the no-effect control and ±100 the full control effect; potency means the concentration at half of the fitted maximal effect.

Potency, active:
CN(CC(=O)NC(=O)NCc1ccco1)Cc1nc2ccccc2c(=O)[nH]1 20 µM, Cc1noc(-c2ccc(N3CCCCC3C)c([N+](=O)[O-])c2)n1 (configuration not stated) 39.8 µM, O=c1c(Cl)c(Cl)cnn1Cc1nnc(-c2ccccc2Br)o1 39.8 µM, Cc1ccc(-n2cccc2/C=C2/C(=N)N3C(=NC2=O)SN=C3S(C)(=O)=O)cc1 15.8 µM, O=C(/C=C/c1ccc(F)cc1)NCc1ccco1 56.2 µM, Nc1cc(C(=O)O)c(Oc2ccc(Cl)cc2Cl)cc1C(=O)O 22.4 µM, O=C(O)c1ccc2c(c1)C(=O)N(N1C(=O)c3ccccc3C1=O)C2=O 25.1 µM

Potency, inconclusive:
Cc1ccnc2nc(C(=O)Nc3nnc(-c4ccccc4)o3)nn12 44.7 µM [inhibitor, partial curve], C=CCN1C(=O)/C(=C2/Sc3ccccc3N2CC)SC1=S 39.8 µM [inhibitor, single point], CN(C)CCNc1nc(-c2ccco2)c2c(c1C#N)CC(C)(C)OC2 3.98 µM [inhibitor, partial curve], O=C(c1ccco1)C(O)c1ccco1 (configuration not stated) 28.2 µM [inhibitor, partial curve], COc1ccc(OC)c(/C=N/NC(=O)c2ccc(Cn3cc([N+](=O)[O-])cn3)o2)c1 89.1 µM [inhibitor, single point], O=C(Oc1cc(=O)oc2c1c(=O)n1c3c(cccc23)CC1)c1ccc(F)cc1 79.4 µM [inhibitor, single point], CCOc1ccc(CNC(=O)CCCn2nc(C)c3c(C)n(-c4ccc(C)cc4)nc3c2=O)cc1 79.4 µM [inhibitor, single point], Cn1c(CCCOc2ccc(Cl)cc2Cl)nnc1SCC(=O)Nc1nccs1 4.47 µM [inhibitor, partial curve, poor fit], Cc1ccc(-c2nc3ccccc3n3c(C)nnc23)cc1 10 µM [inhibitor, partial curve, poor fit], CCN1CNC(=S)N(C(C)c2ccccc2)C1 (configuration not stated) 56.2 µM [inhibitor, partial curve], COc1ccc(C(=O)N/C(=C/c2ccc(Cl)cc2)C(=O)Nc2ccc(C(=O)O)cc2)cc1 39.8 µM [inhibitor, single point], CCCn1c(O)c(C=Nc2ccccc2)sc1=S 28.2 µM [inhibitor, partial curve, poor fit], Cc1ccc(S(=O)(=O)N/N=C\c2cc3c(cc2[N+](=O)[O-])OCO3)cc1 100 µM [inhibitor, single point], O=C(COCc1cc(-c2ccc3c(c2)OCO3)on1)N1CCCCC1 5.62 µM [inhibitor, single point], COc1cc(/C=N/NC(=O)c2nnn(-c3nonc3N)c2C(C)C)ccc1OCc1ccc(F)cc1 0.141 µM [inhibitor, full curve, poor fit], Clc1ccc(COc2ccccc2-c2ccnc3ncnn23)cc1 39.8 µM [inhibitor, partial curve, poor fit], O=C(NC1CCS(=O)(=O)C1)c1ccc(S(=O)(=O)N2CCCCC2)cc1 (configuration not stated) 0.112 µM [inhibitor, full curve, poor fit], COc1cc(NC(=O)c2ccco2)c(OC)cc1NC(=O)Nc1ccccc1Cl 44.7 µM [inhibitor, partial curve], COC(=O)[C@]1(C)CCC[C@@]2(C)C3CC[C@@]4(C)C[C@]3(CC[C@H]12)C[C@H]4O (some centres not stated) 28.2 µM [inhibitor, single point], Cc1cccc(OCC(=O)Nc2nnc(S(=O)(=O)N3CCCCCC3)s2)c1 17.8 µM [inhibitor, full curve, poor fit], CC(C)Cn1c(N)c(C(=O)NCC2CCCO2)c2nc3ccccc3nc21 (configuration not stated) 25.1 µM [inhibitor, full curve], CCOc1cc(C(=O)O)ccc1OCCOc1ccccc1 56.2 µM [inhibitor, single point], CCCCSCCCNC(=O)C1CCN(Cc2nc(-c3ccc(CC)cc3)oc2C)CC1 22.4 µM [inhibitor, single point], Cc1cc(-c2ccc(S(=O)(=O)Nc3cccc(C)c3C)s2)on1 89.1 µM [inhibitor, single point], Nc1nc(SCC(=O)Nc2cc(-c3ccccc3)nn2-c2ccccc2)n[nH]1 4.47 µM [inhibitor, full curve, poor fit], COc1ccc2nc(NC(=O)C3CCCN(S(=O)(=O)c4cccs4)C3)sc2c1 (configuration not stated) 70.8 µM [inhibitor, single point], COCC(C)n1c(COc2ccccc2F)nnc1SCC(=O)c1c(N)n(C)c(=O)n(C)c1=O (configuration not stated) 10 µM [inhibitor, partial curve, poor fit], COc1ccc(N2CC(C(=O)Nc3nnc(SCC(=O)N4CCCC4)s3)CC2=O)cc1 (configuration not stated) 28.2 µM [inhibitor, full curve], COc1ccc(C(=O)Nc2ccc(NC(=O)c3cccs3)cn2)cc1 25.1 µM [inhibitor, full curve, poor fit], C=CCn1c(C)c(C(C)=O)c(N2CCOCC2)nc1=S 89.1 µM [inhibitor, single point], CCOc1cc(/C=N/n2nnnc2N)ccc1OCc1c(C)no[n+]1[O-] 50.1 µM [inhibitor, partial curve], Cc1ccc(C(=O)C2CCOC(C)(C)C2)cc1 (configuration not stated) 100 µM [inhibitor, single point], CCC(=O)Nc1ccccc1-c1nc2ccccc2n(Cc2cccc(Br)c2)c1=O 25.1 µM [inhibitor, full curve, poor fit], O=C(Nc1cnn(Cc2ccc(F)cc2)c1)c1cc(-c2ccco2)on1 89.1 µM [inhibitor, single point], CC(C)(C)c1ccc(/C=N/NC(=S)NC2CCCCC2)cc1 39.8 µM [inhibitor, partial curve, poor fit], O=C(O)[C@H](Cc1ccccc1)NC(=O)N1CCC(Cc2ccccc2)CC1 25.1 µM [inhibitor, single point], O=C(O)CCC(=O)c1ccc2ccc3cccc4ccc1c2c34 63.1 µM [inhibitor, single point], CC(=O)Nc1ccccc1-c1nc2ccccc2n(C(C)C(=O)Nc2cc(Cl)ccc2C)c1=O (configuration not stated) 79.4 µM [inhibitor, partial curve, poor fit], C/C(=N\O)C(C)(C)Nc1ccc(Cl)cc1 89.1 µM [inhibitor, single point], COCCn1c(=NC(=O)/C=C/c2ccccc2)sc2cc(NC(C)=O)ccc21 0.562 µM [inhibitor, full curve, poor fit], COc1ccc(C)cc1NC(=O)c1cc(S(=O)(=O)N2CCC3(CC2)OCCO3)ccc1F 25.1 µM [inhibitor, full curve], CCc1nnc(NC(=O)CSc2ccc(-c3nc4ccc(C)cc4[nH]3)cn2)s1 31.6 µM [inhibitor, single point], COc1ccc(Cc2noc(CN3CCCN(Cc4ccc(F)cc4)CC3)n2)cc1OC 79.4 µM [inhibitor, single point], COc1ccc(-c2noc(CSc3nnc(CCc4ccccc4)n3-c3ccccc3)n2)cc1OC 31.6 µM [inhibitor, partial curve, poor fit], CCOc1ccc2nc(NC(=O)C3CCCN(S(=O)(=O)c4cccs4)C3)sc2c1 (configuration not stated) 56.2 µM [inhibitor, single point], Oc1ccc(C2C=C(c3ccc(F)cc3)Nc3ncnn32)cc1 (configuration not stated) 89.1 µM [inhibitor, single point]

Activity change, negative = inhibition, inactive:
O=C(NCCCN1CCOCC1)c1sc2cc([N+](=O)[O-])ccc2c1Cl 88.8%, O=C(NCCCN1CCOCC1)c1cc(Cl)ccc1OCc1ccccc1 -0.246%, CCc1c(C)sc2c1CCN(C(=O)Nc1ccccc1Cl)C2c1ccc(OC)cc1 (configuration not stated) -27.1%, CCc1ccc(-n2c3nc(=O)[nH]c(=O)c-3cc3c(C)nn(-c4ccccc4)c32)cc1 33.7%, O=C(/C=C/c1ccco1)Nc1ccc(Oc2ccccc2)cc1 13.9%, COc1cccc(/C=C2\Oc3cc(OCC(=O)N4CCC[C@H]4C(=O)O)ccc3C2=O)c1 -1.78%, Cc1cc(-c2[nH]nc3c2C(c2cccc(O)c2)C(C#N)=C(N)O3)c(C)s1 (configuration not stated) -7.31%, COc1cc(OC)c(NC(=O)Cc2c(C(=O)O)c(C)cn2C)cc1Cl 3.15%, Cc1ccc(CNC(=O)Cc2c(C(=O)O)c(C)cn2C)cc1 -21.1%, O=C(SCC(O)C(O)CS)c1cccs1 (configuration not stated) -14.4%, CCCC(=O)Nc1nc(-c2ccc(Cl)s2)cs1 24.3%, Cn1cccc1CNC(=O)Nc1ccccc1 0.267%, COc1ccc(CN2CCCN(CC(=O)Nc3cc(C)ccc3C)S2(=O)=O)cc1 -2.1%

Activity change, negative = inhibition, inconclusive:
CC(=O)N1c2ccc(S(=O)(=O)N3CCCCC3)cc2CC1C(=O)Nc1ccccc1C(F)(F)F (configuration not stated) -33.1% [inhibitor]
